Test results from PMC3709733, “A High Molecular-Mass Anoxybacillus sp. SK3-4 Amylopullulanase: Characterization and Its Relationship in Carbohydrate Utilization” (International Journal of Molecular Sciences, 2013).

These compounds were tested on T1, ApuASK (amylopullulanase) (assay: DNS reducing-sugar assay, pullulan substrate). Conditions: 0.1% (w/v) inhibitor; value is remaining activity, no additive = 100%; 1% pullulan; 100 mM potassium phosphate pH 7.5; 60 °C.
T1 construct: precursor 2033 residues incl; 30-residue signal peptide; monomer; no tag
Type: biochemical, Anoxybacillus sp. SK3-4
Text: DNS reducing-sugar assay, pullulan substrate on ApuASK (amylopullulanase)

| SMILES | Relative activity (%) |
| --- | --- |
| OC[C@H]1O[C@@H]2O[C@H]3[C@H](O)[C@@H](O)[C@@H](O[C@H]4[C@H](O)[C@@H](O)[C@@H](O[C@H]5[C@H](O)[C@@H](O)[C@@H](O[C@H]6[C@H](O)[C@@H](O)[C@@H](O[C@H]7[C@H](O)[C@@H](O)[C@@H](O[C@H]1[C@H](O)[C@H]2O)O[C@@H]7CO)O[C@@H]6CO)O[C@@H]5CO)O[C@@H]4CO)O[C@@H]3CO [α-CD] | 19 ± 0.02 |
| OC[C@H]1O[C@@H]2O[C@H]3[C@H](O)[C@@H](O)[C@@H](O[C@H]4[C@H](O)[C@@H](O)[C@@H](O[C@H]5[C@H](O)[C@@H](O)[C@@H](O[C@H]6[C@H](O)[C@@H](O)[C@@H](O[C@H]7[C@H](O)[C@@H](O)[C@@H](O[C@H]8[C@H](O)[C@@H](O)[C@@H](O[C@H]1[C@H](O)[C@H]2O)O[C@@H]8CO)O[C@@H]7CO)O[C@@H]6CO)O[C@@H]5CO)O[C@@H]4CO)O[C@@H]3CO [β-CD] | 6 ± 0.01 |
| OC[C@H]1O[C@@H]2O[C@H]3[C@H](O)[C@@H](O)[C@@H](O[C@H]4[C@H](O)[C@@H](O)[C@@H](O[C@H]5[C@H](O)[C@@H](O)[C@@H](O[C@H]6[C@H](O)[C@@H](O)[C@@H](O[C@H]7[C@H](O)[C@@H](O)[C@@H](O[C@H]8[C@H](O)[C@@H](O)[C@@H](O[C@H]9[C@H](O)[C@@H](O)[C@@H](O[C@H]1[C@H](O)[C@H]2O)O[C@@H]9CO)O[C@@H]8CO)O[C@@H]7CO)O[C@@H]6CO)O[C@@H]5CO)O[C@@H]4CO)O[C@@H]3CO [γ-CD] | 2 ± 0.01 |
